Test [1] addresses cubilin (CUBN) on BN16 (Brown Norway rat yolk) cells (rat (endogenous in BN16)) (UniProt O70244). In words: flow cytometry on cells; adherent cells incubated with 1 mL of IF-B12-Cy5 (200 nM) in HBSS for 1 h at 37 °C (BN16 also at 4 °C; J774A.1 also with 2 mg/mL mannan), washed three times; excitation 640 nm, detection 660 ± 20 nm; only the binder purified.
Test [2] deals with T1, mannose receptor CD206 on J774A.1 macrophage cells (mouse (endogenous in J774A.1)) (UniProt Q61830).
T1 sequence: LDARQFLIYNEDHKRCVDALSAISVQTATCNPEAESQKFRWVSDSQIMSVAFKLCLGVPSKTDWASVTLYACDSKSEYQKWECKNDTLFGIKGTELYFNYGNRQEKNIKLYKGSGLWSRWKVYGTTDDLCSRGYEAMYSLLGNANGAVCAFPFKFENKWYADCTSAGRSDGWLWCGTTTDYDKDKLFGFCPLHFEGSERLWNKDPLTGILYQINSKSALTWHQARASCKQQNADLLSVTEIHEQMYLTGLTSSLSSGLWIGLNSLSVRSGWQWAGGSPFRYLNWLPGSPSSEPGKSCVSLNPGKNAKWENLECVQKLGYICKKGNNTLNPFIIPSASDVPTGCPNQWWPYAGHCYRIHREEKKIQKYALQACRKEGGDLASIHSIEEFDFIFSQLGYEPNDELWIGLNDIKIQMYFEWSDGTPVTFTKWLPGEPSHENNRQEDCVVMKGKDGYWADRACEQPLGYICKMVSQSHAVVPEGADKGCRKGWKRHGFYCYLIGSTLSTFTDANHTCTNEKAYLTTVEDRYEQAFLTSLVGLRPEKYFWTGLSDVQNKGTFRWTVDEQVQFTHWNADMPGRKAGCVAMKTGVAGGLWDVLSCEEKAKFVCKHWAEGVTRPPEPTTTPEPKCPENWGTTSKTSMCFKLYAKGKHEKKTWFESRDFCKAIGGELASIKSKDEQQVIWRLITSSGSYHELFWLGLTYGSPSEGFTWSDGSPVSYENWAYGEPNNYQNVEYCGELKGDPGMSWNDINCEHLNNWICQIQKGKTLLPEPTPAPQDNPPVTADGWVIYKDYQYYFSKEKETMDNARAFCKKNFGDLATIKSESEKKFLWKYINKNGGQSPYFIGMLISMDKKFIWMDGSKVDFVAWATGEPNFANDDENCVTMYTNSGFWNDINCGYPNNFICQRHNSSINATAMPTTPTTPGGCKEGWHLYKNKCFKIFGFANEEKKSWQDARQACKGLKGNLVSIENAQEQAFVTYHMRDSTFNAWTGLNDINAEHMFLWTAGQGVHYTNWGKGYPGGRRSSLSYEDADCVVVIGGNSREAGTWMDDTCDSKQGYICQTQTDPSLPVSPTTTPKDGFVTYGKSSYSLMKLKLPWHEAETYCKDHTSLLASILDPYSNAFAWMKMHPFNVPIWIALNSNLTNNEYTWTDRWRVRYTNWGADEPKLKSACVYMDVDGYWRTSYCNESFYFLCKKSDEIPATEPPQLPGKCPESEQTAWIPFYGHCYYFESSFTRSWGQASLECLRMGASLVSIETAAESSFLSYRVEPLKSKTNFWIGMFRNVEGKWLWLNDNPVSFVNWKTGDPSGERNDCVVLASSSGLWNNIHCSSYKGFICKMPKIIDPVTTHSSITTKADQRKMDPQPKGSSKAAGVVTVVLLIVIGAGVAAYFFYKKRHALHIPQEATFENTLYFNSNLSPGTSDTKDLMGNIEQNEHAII
The test is described as above.

Amino acid sequences for entries named in this document (tags omitted). Residues count along the entry.
UniProt O70244, residues 33-3623: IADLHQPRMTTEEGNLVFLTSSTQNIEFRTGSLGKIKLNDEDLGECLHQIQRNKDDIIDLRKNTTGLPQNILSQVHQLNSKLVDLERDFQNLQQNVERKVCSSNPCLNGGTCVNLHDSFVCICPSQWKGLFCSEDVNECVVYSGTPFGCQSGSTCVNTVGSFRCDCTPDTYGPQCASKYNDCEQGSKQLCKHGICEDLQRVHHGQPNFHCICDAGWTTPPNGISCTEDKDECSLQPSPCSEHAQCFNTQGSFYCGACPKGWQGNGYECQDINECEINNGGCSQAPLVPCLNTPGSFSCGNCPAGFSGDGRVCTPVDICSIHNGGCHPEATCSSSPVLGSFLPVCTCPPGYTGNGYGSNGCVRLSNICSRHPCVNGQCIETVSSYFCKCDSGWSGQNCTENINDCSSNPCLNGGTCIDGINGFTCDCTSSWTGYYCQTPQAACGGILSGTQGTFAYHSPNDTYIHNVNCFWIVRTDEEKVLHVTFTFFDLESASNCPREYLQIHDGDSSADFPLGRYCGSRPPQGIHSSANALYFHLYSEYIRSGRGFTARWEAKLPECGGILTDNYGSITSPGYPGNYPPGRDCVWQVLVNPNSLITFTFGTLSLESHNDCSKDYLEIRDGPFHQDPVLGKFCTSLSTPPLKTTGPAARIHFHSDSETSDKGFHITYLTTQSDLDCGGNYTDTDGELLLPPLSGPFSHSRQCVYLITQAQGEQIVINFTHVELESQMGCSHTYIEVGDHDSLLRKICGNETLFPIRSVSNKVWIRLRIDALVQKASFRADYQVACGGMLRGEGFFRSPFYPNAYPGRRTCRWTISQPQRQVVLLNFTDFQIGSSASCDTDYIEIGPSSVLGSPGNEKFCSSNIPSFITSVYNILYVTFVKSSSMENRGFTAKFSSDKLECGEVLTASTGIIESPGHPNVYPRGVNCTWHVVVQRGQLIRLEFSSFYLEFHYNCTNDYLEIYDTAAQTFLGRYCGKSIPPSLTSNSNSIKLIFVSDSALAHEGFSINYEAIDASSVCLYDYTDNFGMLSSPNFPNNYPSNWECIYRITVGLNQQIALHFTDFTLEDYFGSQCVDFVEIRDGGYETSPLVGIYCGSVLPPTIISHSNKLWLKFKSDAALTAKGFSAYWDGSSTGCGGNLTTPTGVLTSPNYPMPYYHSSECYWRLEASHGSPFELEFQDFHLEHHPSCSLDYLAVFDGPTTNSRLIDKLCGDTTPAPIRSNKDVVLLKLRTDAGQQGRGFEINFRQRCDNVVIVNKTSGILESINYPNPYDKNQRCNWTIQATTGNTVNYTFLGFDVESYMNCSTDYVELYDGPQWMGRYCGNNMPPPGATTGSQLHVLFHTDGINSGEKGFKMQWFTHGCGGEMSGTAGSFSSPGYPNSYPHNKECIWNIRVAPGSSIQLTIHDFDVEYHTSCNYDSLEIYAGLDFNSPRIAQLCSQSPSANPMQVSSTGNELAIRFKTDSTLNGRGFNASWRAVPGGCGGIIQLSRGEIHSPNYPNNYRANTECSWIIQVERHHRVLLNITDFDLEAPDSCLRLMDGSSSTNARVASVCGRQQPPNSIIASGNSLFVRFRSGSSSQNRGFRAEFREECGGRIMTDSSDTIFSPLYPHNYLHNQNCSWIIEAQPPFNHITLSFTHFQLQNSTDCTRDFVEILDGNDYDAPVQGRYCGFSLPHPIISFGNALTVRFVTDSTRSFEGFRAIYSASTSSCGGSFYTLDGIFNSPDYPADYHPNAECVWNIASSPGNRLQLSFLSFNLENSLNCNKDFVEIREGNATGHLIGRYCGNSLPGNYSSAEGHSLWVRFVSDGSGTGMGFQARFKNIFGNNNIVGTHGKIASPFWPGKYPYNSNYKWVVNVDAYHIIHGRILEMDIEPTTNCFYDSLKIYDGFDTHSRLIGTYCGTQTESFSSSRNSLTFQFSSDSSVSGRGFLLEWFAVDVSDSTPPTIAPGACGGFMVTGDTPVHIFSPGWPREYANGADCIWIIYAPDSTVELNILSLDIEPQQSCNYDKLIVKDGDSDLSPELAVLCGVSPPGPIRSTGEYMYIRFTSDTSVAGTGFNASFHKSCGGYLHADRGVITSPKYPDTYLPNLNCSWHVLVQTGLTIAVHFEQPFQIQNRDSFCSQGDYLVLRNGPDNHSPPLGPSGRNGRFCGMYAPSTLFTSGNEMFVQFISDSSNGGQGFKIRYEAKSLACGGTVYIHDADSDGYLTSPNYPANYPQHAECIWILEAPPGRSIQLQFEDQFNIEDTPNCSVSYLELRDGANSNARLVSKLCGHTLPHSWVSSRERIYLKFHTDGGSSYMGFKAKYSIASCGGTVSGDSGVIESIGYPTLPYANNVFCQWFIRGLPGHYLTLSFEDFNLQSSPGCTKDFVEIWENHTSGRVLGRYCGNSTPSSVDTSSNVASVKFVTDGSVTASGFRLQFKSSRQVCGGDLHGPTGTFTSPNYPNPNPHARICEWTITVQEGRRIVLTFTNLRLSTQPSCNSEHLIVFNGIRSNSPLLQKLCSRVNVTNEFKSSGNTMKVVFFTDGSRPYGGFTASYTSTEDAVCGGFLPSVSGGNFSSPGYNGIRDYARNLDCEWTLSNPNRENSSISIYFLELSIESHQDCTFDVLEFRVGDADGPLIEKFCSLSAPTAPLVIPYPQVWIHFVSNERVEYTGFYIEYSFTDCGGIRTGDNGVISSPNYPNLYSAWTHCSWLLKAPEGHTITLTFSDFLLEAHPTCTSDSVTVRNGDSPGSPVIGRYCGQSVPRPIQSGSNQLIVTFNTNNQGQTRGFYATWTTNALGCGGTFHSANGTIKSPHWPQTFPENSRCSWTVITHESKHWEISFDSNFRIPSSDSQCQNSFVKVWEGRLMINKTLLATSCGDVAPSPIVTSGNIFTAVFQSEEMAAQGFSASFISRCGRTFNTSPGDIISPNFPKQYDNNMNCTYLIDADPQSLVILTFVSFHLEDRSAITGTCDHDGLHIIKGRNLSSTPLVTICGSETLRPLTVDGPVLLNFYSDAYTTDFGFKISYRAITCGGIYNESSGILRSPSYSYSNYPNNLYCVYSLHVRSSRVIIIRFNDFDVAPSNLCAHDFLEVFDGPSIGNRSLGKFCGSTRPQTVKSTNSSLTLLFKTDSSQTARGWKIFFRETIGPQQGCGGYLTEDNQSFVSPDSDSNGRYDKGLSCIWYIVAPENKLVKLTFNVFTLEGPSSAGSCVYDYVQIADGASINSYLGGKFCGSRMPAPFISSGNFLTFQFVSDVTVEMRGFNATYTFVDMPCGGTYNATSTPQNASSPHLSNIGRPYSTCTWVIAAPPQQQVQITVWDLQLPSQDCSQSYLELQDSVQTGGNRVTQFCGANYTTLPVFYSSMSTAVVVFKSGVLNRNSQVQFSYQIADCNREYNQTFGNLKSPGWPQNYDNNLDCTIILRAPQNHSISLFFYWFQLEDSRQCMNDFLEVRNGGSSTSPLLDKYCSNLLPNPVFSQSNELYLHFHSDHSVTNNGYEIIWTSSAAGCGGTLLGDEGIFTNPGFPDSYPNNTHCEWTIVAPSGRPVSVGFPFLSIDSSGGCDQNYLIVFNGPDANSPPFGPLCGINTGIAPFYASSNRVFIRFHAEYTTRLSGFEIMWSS
UniProt P27352, residues 19-417: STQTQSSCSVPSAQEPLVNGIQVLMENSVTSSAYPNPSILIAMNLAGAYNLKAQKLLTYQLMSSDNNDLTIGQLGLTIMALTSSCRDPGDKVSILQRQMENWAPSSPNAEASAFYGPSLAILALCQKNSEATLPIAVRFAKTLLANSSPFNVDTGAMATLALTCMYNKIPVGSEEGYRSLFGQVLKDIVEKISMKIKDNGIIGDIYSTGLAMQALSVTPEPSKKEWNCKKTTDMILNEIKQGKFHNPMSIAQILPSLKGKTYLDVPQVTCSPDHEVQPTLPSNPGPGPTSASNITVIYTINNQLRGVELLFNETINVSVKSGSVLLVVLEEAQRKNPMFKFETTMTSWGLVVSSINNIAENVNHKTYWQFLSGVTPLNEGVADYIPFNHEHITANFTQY

These results are taken from article PMC6706418, “Systemically Administered Plant Recombinant Holo-Intrinsic Factor Targets the Liver and is not Affected by Endogenous B12 levels” (Scientific Reports, 2019).

No constants are given. Whether binding was seen depends on the method and setting. Some entries that bind do so weakly or less than the wild type.

In the case of “human recombinant gastric intrinsic factor produced in Arabidopsis thaliana, bound to B12-Cy5 (IF-B12-Cy5) (from UniProt P27352 19-417)”, the binding entry in test [1] and in test [2] was “binds” each time.
